According to US20130184224A1:
Results are given in words; binding and its absence hold for the method and conditions named. Binding seen in cells or lysates may run through a third protein. Some results given as binding are weak or reduced against the parent protein; the word gives no strength.

Chains of the proteins cited; added tags and fusions are not shown. Lines headed by an entry give the natural chain unless they say otherwise; changes in a name come on top. A line that says so, or that is headed by a name, gives the form on record, which may keep a tag or linker.
UniProt P10275: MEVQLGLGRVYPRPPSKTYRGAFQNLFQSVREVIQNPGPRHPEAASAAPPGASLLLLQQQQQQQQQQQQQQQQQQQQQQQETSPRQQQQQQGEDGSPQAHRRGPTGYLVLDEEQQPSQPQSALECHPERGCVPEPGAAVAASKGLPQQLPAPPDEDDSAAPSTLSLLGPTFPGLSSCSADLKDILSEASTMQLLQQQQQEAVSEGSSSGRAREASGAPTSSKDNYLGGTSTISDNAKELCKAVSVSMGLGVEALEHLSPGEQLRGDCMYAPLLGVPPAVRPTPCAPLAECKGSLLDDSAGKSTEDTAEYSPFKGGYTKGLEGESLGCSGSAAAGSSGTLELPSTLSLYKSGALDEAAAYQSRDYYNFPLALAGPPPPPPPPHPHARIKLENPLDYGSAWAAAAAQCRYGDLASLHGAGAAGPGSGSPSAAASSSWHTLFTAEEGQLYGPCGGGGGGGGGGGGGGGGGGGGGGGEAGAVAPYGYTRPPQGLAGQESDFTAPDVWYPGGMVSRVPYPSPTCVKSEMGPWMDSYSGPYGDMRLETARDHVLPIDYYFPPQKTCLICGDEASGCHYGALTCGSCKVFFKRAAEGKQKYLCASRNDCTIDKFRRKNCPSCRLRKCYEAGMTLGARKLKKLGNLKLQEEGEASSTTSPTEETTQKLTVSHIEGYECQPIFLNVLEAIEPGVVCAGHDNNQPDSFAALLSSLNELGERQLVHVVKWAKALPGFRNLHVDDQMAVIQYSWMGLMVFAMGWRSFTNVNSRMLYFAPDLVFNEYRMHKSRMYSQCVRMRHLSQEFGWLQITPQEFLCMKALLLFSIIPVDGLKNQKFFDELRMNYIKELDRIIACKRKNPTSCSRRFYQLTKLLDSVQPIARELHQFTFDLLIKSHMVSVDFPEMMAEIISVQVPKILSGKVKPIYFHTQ
FLAG-tagged AR (P10275, form named): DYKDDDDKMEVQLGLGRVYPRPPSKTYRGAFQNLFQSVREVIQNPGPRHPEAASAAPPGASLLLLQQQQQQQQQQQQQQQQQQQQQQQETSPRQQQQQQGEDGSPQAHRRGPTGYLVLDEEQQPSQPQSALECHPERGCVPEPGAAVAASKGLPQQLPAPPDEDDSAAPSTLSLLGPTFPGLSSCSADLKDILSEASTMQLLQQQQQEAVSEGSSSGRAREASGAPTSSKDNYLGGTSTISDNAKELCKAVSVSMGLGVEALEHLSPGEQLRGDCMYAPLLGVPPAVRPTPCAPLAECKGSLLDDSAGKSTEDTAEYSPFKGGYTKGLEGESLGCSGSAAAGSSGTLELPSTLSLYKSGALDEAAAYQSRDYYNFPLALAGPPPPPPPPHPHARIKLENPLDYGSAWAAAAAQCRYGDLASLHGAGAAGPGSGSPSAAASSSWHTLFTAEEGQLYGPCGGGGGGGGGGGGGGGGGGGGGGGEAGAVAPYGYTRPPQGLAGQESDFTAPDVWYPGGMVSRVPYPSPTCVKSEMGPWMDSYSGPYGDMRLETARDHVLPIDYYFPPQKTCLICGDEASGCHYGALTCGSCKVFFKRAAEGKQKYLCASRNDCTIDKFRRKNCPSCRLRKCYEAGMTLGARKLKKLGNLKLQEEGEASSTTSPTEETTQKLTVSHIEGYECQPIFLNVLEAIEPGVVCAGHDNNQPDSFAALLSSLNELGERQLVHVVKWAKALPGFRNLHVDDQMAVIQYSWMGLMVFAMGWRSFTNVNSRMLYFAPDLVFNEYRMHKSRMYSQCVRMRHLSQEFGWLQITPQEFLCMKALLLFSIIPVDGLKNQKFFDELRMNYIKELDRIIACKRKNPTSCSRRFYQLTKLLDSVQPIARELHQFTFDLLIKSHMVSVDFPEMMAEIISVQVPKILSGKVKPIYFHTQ
UniProt Q92466: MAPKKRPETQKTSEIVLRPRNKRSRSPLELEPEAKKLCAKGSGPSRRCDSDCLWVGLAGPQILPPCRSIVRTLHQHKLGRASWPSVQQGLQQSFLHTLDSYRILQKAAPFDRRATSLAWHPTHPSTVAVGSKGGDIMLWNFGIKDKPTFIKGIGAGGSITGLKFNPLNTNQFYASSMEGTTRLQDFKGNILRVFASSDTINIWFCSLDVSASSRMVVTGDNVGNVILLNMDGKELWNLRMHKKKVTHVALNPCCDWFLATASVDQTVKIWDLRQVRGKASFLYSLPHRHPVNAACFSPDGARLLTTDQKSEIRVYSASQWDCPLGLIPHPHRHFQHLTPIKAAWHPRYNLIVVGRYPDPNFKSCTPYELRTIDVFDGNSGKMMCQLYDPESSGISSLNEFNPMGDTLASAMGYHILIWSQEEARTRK

Legend:
His-AR fusion protein [1] = biological target: His-AR fusion protein (UniProt P10275); experiment: reciprocal pull-down (Ni-NTA / GST) of purified His-AR and GST-DDB2, Western blot with anti-His and anti-GST
His-AR fusion protein [2] = biological target: His-AR fusion protein (UniProt P10275); experiment: pull-down of purified proteins, Western blot
His-AR fusion protein [3] = biological target: His-AR fusion protein (UniProt P10275); experiment: summary of the pull-down of purified proteins
FLAG-tagged AR [4] = biological target: FLAG-tagged AR (UniProt P10275); experiment: co-immunoprecipitation from transfected 293T cells, Western blot
FLAG-tagged AR [5] = biological target: FLAG-tagged AR (UniProt P10275); experiment: reciprocal co-immunoprecipitation (anti-FLAG / anti-Myc) from co-transfected 293T cells, Western blot

Substance | binding (His-AR fusion protein [1]) | binding (His-AR fusion protein [2]) | binding (His-AR fusion protein [3]) | binding (FLAG-tagged AR [4]) | binding (FLAG-tagged AR [5])
GST-DDB2 fusion protein (from UniProt Q92466 1-427) | binds | binds | binds | – | –
Myc-tagged DDB2 (from UniProt Q92466 1-427) | – | – | – | binds | binds
